# Reference: US6465612B1 (The Regents of the University of California, priority 1998, dated 2002)
# Assay: general procedure: Fmoc solid-phase peptide synthesis; HMP resin; DCC-mediated HOBT ester activation in NMP; HBTU/HOBt/DIEA for the glycosylated a
# Settings: whole synthesis, RP-HPLC and ESI-MS
substance,measurement,value
H2N-Gly-Lys-Pro-Arg-Pro-Tyr-Ser-Pro-Arg-Pro-Thr(α-D-GalNAc)-Ser-His-Pro-Arg-Pro-Ile-Arg-Val-OH,crude HPLC purity,˜95%
